Results as given in patent US11400106B2, “Methods for inhibiting microbe growth” (priority 2018, dated 2022).

Key:
S. aureus = test system: S. aureus
Procedure: (§1) In the following experiments, bacterial cells were cultured in 96-well microtiter plates in cation-adjusted Mueller-Hinton Broth (MHB) for 18 h at 37° C. The main strains used were E. coli (K-12 BW25113) (placed in stationary incubator) and S. aureus (Newman Strain) (incubated at 250 r.p.m). Knockout strains (ΔtolcC and ΔychM) were used from the Keio knockout collection (Baba et al., Construction of Escherichia coli K-12 in-frame, single-gene knockout mutants: the Keio collection. Mol Syst Biol 2, 2006 0008, doi:10.1038/msb4100050 (2006)). For MIC determination and checkerboard analyses, Clinical & Laboratory Standards Institute (CLSI) protocol was used. […] DiSC3 loading of S. aureus cells was performed as previously described (Farha et al., Collapsing the proton motive force to identify synergistic combinations against Staphylococcus aureus. Chemistry & biology 20, 1168-1178, doi:10.1016/j.chembiol.2013.07.006 (2013)). CCCP concentration of 20 μM was used. pH adjustments were made by addition of HCl or NaOH. INT assay and ATP bioluminescence assays were performed as previously described (Farha et al., Collapsing the proton motive force to identify synergistic combinations against Staphylococcus aureus. Chemistry & biology 20, 1168-1178, doi:10.1016/j.chembiol.2013.07.006 (2013)). For chemical-genomic studies, the Keio library was grown overnight in cation-adjusted MHB broth, in 384-well plates. From these, treatment plates (25 mM sodium bicarbonate, or a sterile water control) were inoculated and grown for 15 hours at 37° C., in a stationary incubator. Data was normalized according to Mangat et al (Mangat et al., Rank ordering plate data facilitates data visualization and normalization in high-throughput screening. J Biomol Screen 19, 1314-1320, doi:10.1177/1087057114534298 (2014)), with gene products and GO terms mined from EcoCyc. The GFP promoter library (Keseler et al., EcoCyc: fusing model organism databases with systems biology. Nucleic Acids Res 41, D605-612, doi:10.1093/nar/gks1027 (2013)) was grown for 18 hours at ambient temperature with the same inoculation strategy as with the Keio collection. The analysis pipeline of Zaslaver et al (Zaslaver et al., A comprehensive library of fluorescent transcriptional reporters for Escherichia coli. Nat Methods 3, 623-628, doi:10.1038/nmeth895 (2006)) was used to generate maps of promoter activity, from which lists of promoters with increased or decreased activity were compiled.
(§2) Fold enhancement in MICs in the media supplemented with sodium bicarbonate is represented by a positive fold, whereas suppression of activity is represented by a negative fold.
(§3) The effect of sodium bicarbonate on the activity of additional antibacterial agents was investigated. […]

E. coli = assay type: cell-based, Escherichia coli
Procedure: as §1, §2, §3

Row | SMILES | MIC, S. aureus, MHB (S. aureus) | MIC, S. aureus, MHB+ (S. aureus) | MIC, E. coli, MHB (E. coli) | MIC, E. coli, MHB+ (E. coli)
1 | CC(C)(C)CC(C)(C)c1ccc(OCCOCC[N+](C)(C)Cc2ccccc2)cc1 [Benzethonium chloride] | 1 μg of antimicrobial agent/mL of buffer | 0.5 μg of antimicrobial agent/mL of buffer | 64 μg of antimicrobial agent/mL of buffer | 32 μg of antimicrobial agent/mL of buffer
2 | CCCCCCCCCCCCCCCC[n+]1ccccc1 [Cetylpyridinium chloride] | 0.125 μg of antimicrobial agent/mL of buffer | 0.0156 μg of antimicrobial agent/mL of buffer | 16 μg of antimicrobial agent/mL of buffer | 4 μg of antimicrobial agent/mL of buffer
